Experimental data: PubChem BioAssay AID1259405 (NCATS, 2018)

- Aim: 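Silenced genes that increase secreted GFP made by CHO cells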 (primary screen)
- System: Chinese hamster CHO-K1 ovary cells with stable secreted eGFP expression
- Reagents: single siRNA against mouse genes, 0.8 pmol siRNA per well (2 µl of 400 nM stock)
- Timing: 3 days
- Detection: 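Percent of the per-plate non-targeting control median for intracellular GFP per well by laser scanning cytometry and for cell viability by ATP luminescence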
- Reading the numbers: GFP, % of control: higher = more GFP per well, higher productivity; viability (ATP), % of control: higher = more viable cells (more ATP)
- Call rule: 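Called active when intracellular GFP, relative to negative control, is at or above 120%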
This is an unselected part of about 50,000 reagents tested. About 4,000 of all reagents (8%) count as active. 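Mouse siRNA library applied to hamster cells; one well for each siRNA.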 The numbers tell different reagents against one gene apart.

no.	target gene	reagent no.	GFP, % of control	viability (ATP), % of control	Call
1	Smpd1 (sphingomyelin phosphodiesterase 1, acid lysosomal)	1	91	95.3	inactive
2	Smpd1 (sphingomyelin phosphodiesterase 1, acid lysosomal)	2	58.5	55.1	inactive
3	Smpd1 (sphingomyelin phosphodiesterase 1, acid lysosomal)	3	80.2	69	inactive
4	Rxfp1 (relaxin/insulin-like family peptide receptor 1)	1	94.6	69.8	inactive
5	Rxfp1 (relaxin/insulin-like family peptide receptor 1)	2	60.3	58.2	inactive
6	Rxfp1 (relaxin/insulin-like family peptide receptor 1)	3	90.3	84.4	inactive
7	Serpinb5 (serine (or cysteine) peptidase inhibitor, clade B, member 5)	1	98.7	113	inactive
8	Serpinb5 (serine (or cysteine) peptidase inhibitor, clade B, member 5)	2	104	104	inactive
9	Serpinb5 (serine (or cysteine) peptidase inhibitor, clade B, member 5)	3	66.2	66.2	inactive
10	Ttc39b (tetratricopeptide repeat domain 39B)	1	99.4	102	inactive
11	Ttc39b (tetratricopeptide repeat domain 39B)	2	111	62.3	inactive
12	Ttc39b (tetratricopeptide repeat domain 39B)	3	52.6	38.9	inactive
13	Ttc39b (tetratricopeptide repeat domain 39B)	4	60	66.6	inactive
14	Ttc39b (tetratricopeptide repeat domain 39B)	5	92.8	80.8	inactive
15	Ttc39b (tetratricopeptide repeat domain 39B)	6	99	74.8	inactive
16	Cyp2c65 (cytochrome P450, family 2, subfamily c, polypeptide 65)	1	133	59.4	active
17	Cyp2c65 (cytochrome P450, family 2, subfamily c, polypeptide 65)	2	52.7	70.9	inactive
18	Cyp2c65 (cytochrome P450, family 2, subfamily c, polypeptide 65)	3	65.8	83.4	inactive
19	Hopx (HOP homeobox)	1	72.7	65.7	inactive
20	Hopx (HOP homeobox)	2	82	80.9	inactive
21	Hopx (HOP homeobox)	3	28.1	27.6	inactive
22	Heatr5b (HEAT repeat containing 5B)	1	80.7	72.3	inactive
23	Heatr5b (HEAT repeat containing 5B)	2	40.4	51.4	inactive
24	Heatr5b (HEAT repeat containing 5B)	3	68.9	84.9	inactive
25	Or5b3 (olfactory receptor family 5 subfamily B member 3)	1	69.8	75.6	inactive
26	Or5b3 (olfactory receptor family 5 subfamily B member 3)	2	54.6	66.1	inactive
27	Or5b3 (olfactory receptor family 5 subfamily B member 3)	3	30.2	48.1	inactive
28	Ndufs4 (NADH:ubiquinone oxidoreductase core subunit S4)	1	68.6	93.8	inactive
29	Ndufs4 (NADH:ubiquinone oxidoreductase core subunit S4)	2	109	92	inactive
30	Egfl7 (EGF-like domain 7)	1	79.3	84.8	inactive
31	Egfl7 (EGF-like domain 7)	2	82.8	100	inactive
32	Egfl7 (EGF-like domain 7)	3	58.9	39.3	inactive
33	Ece1 (endothelin converting enzyme 1)	1	66.9	76.5	inactive
34	Ece1 (endothelin converting enzyme 1)	2	122	66.7	active
35	Ece1 (endothelin converting enzyme 1)	3	117	99.7	inactive
36	Gcdh (glutaryl-Coenzyme A dehydrogenase)	1	142	105	active
37	Gcdh (glutaryl-Coenzyme A dehydrogenase)	2	127	93.2	active
38	1700018B08Rik (RIKEN cDNA 1700018B08 gene)	1	80.3	71.4	inactive
39	1700018B08Rik (RIKEN cDNA 1700018B08 gene)	2	87.1	111	inactive
40	1700018B08Rik (RIKEN cDNA 1700018B08 gene)	3	93.9	78.4	inactive
41	Or51b6 (olfactory receptor family 51 subfamily B member 6)	1	102	55.1	inactive
42	Or51b6 (olfactory receptor family 51 subfamily B member 6)	2	73.1	90.1	inactive
43	Or51b6 (olfactory receptor family 51 subfamily B member 6)	3	86.3	46.9	inactive
44	Ocln (occludin)	1	66.4	68.9	inactive
45	Ocln (occludin)	2	89	71.4	inactive
46	Ocln (occludin)	3	112	137	inactive
47	Abcg5 (ATP binding cassette subfamily G member 5)	1	119	86.2	inactive
48	Abcg5 (ATP binding cassette subfamily G member 5)	2	28.9	36.8	inactive
49	Abcg5 (ATP binding cassette subfamily G member 5)	3	91.4	75.1	inactive
50	Or13a26 (olfactory receptor family 13 subfamily A member 26)	1	65.1	60.2	inactive
51	Or13a26 (olfactory receptor family 13 subfamily A member 26)	2	79.2	93.4	inactive
52	Or13a26 (olfactory receptor family 13 subfamily A member 26)	3	37.9	43.6	inactive
53	H1f9 (H1.9 linker histone)	1	59.3	67.2	inactive
54	H1f9 (H1.9 linker histone)	2	51.4	39.5	inactive
55	H1f9 (H1.9 linker histone)	3	147	88.4	active
56	Ffar4 (free fatty acid receptor 4)	1	72.4	49.2	inactive
57	Ffar4 (free fatty acid receptor 4)	2	99.2	75.2	inactive
58	Ffar4 (free fatty acid receptor 4)	3	79.6	79.3	inactive
59	Cimap1b (ciliary microtubule associated protein 1B)	1	91.9	64.3	inactive
60	Cimap1b (ciliary microtubule associated protein 1B)	2	70.1	92.7	inactive
61	Cimap1b (ciliary microtubule associated protein 1B)	3	56.1	62.1	inactive
62	Catsper4 (cation channel, sperm associated 4)	1	73.8	75.7	inactive
63	Catsper4 (cation channel, sperm associated 4)	2	90.6	83.7	inactive
64	Catsper4 (cation channel, sperm associated 4)	3	86.6	65.1	inactive
65	Sh3rf3 (SH3 domain containing ring finger 3)	1	114	90.2	inactive
66	Sh3rf3 (SH3 domain containing ring finger 3)	2	73.3	59.2	inactive
67	Sh3rf3 (SH3 domain containing ring finger 3)	3	58.9	60.9	inactive
68	Ankrd17 (ankyrin repeat domain 17)	1	39.2	44	inactive
69	Ankrd17 (ankyrin repeat domain 17)	2	63.2	62	inactive
70	Ankrd17 (ankyrin repeat domain 17)	3	120	69	active
71	Fabp5 (fatty acid binding protein 5, epidermal)	1	76.7	106	inactive
72	Fabp5 (fatty acid binding protein 5, epidermal)	2	70.7	63.7	inactive
73	Fabp5 (fatty acid binding protein 5, epidermal)	3	43.6	40.5	inactive
74	Tmem170 (transmembrane protein 170)	1	87.9	65.6	inactive
75	Tmem170 (transmembrane protein 170)	2	65.6	71.7	inactive
76	Tmem170 (transmembrane protein 170)	3	89.9	123	inactive
77	Sowahd (sosondowah ankyrin repeat domain family member D)	1	53.8	49.1	inactive
78	Sowahd (sosondowah ankyrin repeat domain family member D)	2	110	55.6	inactive
79	Sowahd (sosondowah ankyrin repeat domain family member D)	3	127	106	active
80	Myh2 (myosin, heavy polypeptide 2, skeletal muscle, adult)	1	67.5	67.7	inactive
81	Myh2 (myosin, heavy polypeptide 2, skeletal muscle, adult)	2	80.6	72.5	inactive
82	Myh2 (myosin, heavy polypeptide 2, skeletal muscle, adult)	3	92.9	89.1	inactive
83	Crybb3 (crystallin, beta B3)	1	56.2	79.5	inactive
84	Crybb3 (crystallin, beta B3)	2	48.8	67	inactive
85	Crybb3 (crystallin, beta B3)	3	105	141	inactive

12 entries from above, sorted by “GFP, % of control”, lowest first:
target gene	reagent no.	GFP, % of control	viability (ATP), % of control	Call
Fabp5 (fatty acid binding protein 5, epidermal)	3	43.6	40.5	inactive
Sowahd (sosondowah ankyrin repeat domain family member D)	1	53.8	49.1	inactive
Tmem170 (transmembrane protein 170)	2	65.6	71.7	inactive
Myh2 (myosin, heavy polypeptide 2, skeletal muscle, adult)	1	67.5	67.7	inactive
Fabp5 (fatty acid binding protein 5, epidermal)	2	70.7	63.7	inactive
Fabp5 (fatty acid binding protein 5, epidermal)	1	76.7	106	inactive
Myh2 (myosin, heavy polypeptide 2, skeletal muscle, adult)	2	80.6	72.5	inactive
Tmem170 (transmembrane protein 170)	1	87.9	65.6	inactive
Tmem170 (transmembrane protein 170)	3	89.9	123	inactive
Myh2 (myosin, heavy polypeptide 2, skeletal muscle, adult)	3	92.9	89.1	inactive
Sowahd (sosondowah ankyrin repeat domain family member D)	2	110	55.6	inactive
Sowahd (sosondowah ankyrin repeat domain family member D)	3	127	106	active
